Results are given in words; binding and its absence hold for the method and conditions named. In cells and extracts the contact can be indirect. Some entries that bind do so weakly or less than the wild type.
How the values were obtained:
[1] = target: T1, E3 ubiquitin ligase PRAJA1 (mouse (endogenous in hippocampal CA1 tissue)) (UniProt O55176); experiment: co-IP; mouse hippocampal CA1 tissue lysed in RIPA buffer with protease inhibitors, precleared with control agarose resin; antibody (PRAJA1, IgG control; by the legend also spinophilin) immobilised on resin, incubated with lysate overnight; Western blot
T1 sequence: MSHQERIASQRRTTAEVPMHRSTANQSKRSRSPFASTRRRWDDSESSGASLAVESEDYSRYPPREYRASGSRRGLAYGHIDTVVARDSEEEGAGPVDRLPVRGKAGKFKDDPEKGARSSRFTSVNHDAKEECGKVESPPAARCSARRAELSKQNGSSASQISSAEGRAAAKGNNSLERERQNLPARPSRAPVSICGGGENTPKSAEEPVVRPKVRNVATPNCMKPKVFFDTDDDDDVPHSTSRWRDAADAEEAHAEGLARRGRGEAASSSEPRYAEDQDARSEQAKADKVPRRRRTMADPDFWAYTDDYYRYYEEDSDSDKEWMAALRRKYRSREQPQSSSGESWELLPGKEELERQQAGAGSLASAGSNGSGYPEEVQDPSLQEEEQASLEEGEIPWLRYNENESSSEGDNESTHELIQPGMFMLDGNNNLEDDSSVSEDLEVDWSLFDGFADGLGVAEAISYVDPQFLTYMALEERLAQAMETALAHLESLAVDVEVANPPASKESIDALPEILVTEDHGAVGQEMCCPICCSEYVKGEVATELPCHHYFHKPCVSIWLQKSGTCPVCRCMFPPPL

By UniProt entry, the sequences of proteins in these tests, tags left out.
UniProt Q6R891: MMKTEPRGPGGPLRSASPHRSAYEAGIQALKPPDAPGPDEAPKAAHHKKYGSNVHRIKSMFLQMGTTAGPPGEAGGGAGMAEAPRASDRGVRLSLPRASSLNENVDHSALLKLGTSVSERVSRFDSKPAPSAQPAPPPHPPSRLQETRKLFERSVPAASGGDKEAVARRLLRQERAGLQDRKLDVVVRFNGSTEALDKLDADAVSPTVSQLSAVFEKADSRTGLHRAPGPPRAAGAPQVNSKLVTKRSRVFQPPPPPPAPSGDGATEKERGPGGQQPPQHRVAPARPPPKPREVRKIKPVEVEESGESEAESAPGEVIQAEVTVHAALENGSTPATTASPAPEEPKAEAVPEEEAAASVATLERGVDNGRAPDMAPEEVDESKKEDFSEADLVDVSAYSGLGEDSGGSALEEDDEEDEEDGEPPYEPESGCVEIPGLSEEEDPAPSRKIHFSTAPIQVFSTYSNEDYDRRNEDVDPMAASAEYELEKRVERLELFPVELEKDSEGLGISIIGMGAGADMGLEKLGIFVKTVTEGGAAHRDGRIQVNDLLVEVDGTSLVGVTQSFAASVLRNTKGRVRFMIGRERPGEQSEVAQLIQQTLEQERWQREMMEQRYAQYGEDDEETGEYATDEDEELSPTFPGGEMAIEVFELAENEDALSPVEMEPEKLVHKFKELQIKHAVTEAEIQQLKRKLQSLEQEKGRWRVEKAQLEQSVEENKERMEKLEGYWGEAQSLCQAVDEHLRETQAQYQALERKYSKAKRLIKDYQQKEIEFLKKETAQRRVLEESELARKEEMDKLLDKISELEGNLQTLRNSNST

[2] = target: spinophilin (neurabin 2) (mouse (endogenous in hippocampal CA1 tissue)) (UniProt Q6R891); experiment: as above

“spinophilin (neurabin 2) (from UniProt Q6R891 1-817)” was tested, and the binding [1] was “binds”.

B1: E3 ubiquitin ligase PRAJA1 (protein, UniProt O55176 1-578)
chain: T1 sequence
In the case of B1, the binding [2] is reported as “binds”.

Source: paper PMC11988436
